The source of these data is the supplement of paper PMC9015667.

Where a name gives a salt, the structure may show the parent alone. The list shows a part of the results. Single values are uncertain, as repeats are few or missing.

The subject of this experiment is UACC62P (parental melanoma line). Briefly: reduction in cell viability relative to untreated/vehicle; higher = more growth inhibition. The settings on record: 200 nM; 72 h.
`N#C[C@@H]1C[C@@H]2C[C@@H]2N1C(=O)[C@@H](N)C12CC3CC(CC(O)(C3)C1)C2` [Saxagliptin]: the “reduction in cell viability” value was below 0%.
As for `COc1ccc(-c2nc3cc(C4=NNC(=O)CC4C)ccc3[nH]2)cc1` (stereo not drawn) [Pimobendan hydrochloride], the “reduction in cell viability” value is below 0%.
For `COc1ccc(-c2ccc3c(N4CCOC[C@@H]4C)nc(N4CCOC[C@@H]4C)nc3n2)cc1CO` the value was 68.8%; for `CC[C@H](CC#N)OC(=O)N[C@@H](C)c1cccc(NC(=O)Nc2ccc(-c3cnco3)c(OC)c2)c1`, 16%.
For the compound `Oc1ccc(-c2nc(-c3ccc(F)cc3)c(-c3ccncc3)[nH]2)cc1`, the “reduction in cell viability” value was below 0%.
`Fc1cc(-c2cccc3ncc(-c4cnn(C5CCNCC5)c4)nc23)cc(F)c1CN1CCOCC1`: the “reduction in cell viability” value was below 0%.
For `c1ccc(-c2oc3ncnc(NC[C@@H]4CCCO4)c3c2-c2ccccc2)cc1` the value was 3.83%; for `CS(=O)(=O)N(Cc1ccco1)C[C@@H](O)Cn1c2ccccc2c2ccccc21`, below 0%; for `Cn1cc(-c2ccncc2)c(-c2ccc(OCc3ccc4ccccc4n3)cc2)n1`, below 0%.
For `CC(C)CN(C[C@@H](O)[C@H](Cc1ccccc1)NC(=O)O[C@H]1CCOC1)S(=O)(=O)c1ccc(N)cc1` [Amprenavir] the value was below 0%.
For `CNC(=O)c1ccc2cc([C@@]3(O)CCn4cncc43)ccc2c1` [Orteronel] the value was below 0%; for `CCN(CC)CCCCNc1ncc2c(n1)N(C)C(=O)N(c1c(Cl)c(OC)cc(OC)c1Cl)C2`, below 0%.
On to `CCOC(=O)N1c2ccc(C(F)(F)F)cc2[C@@H](N(Cc2cc(C(F)(F)F)cc(C(F)(F)F)c2)C(=O)OC)C[C@H]1CC` [Torcetrapib], for which the “reduction in cell viability” value is below 0%.
